Results: patent EP4814015A1
Results are given in words; binding and its absence hold for the method and conditions named. Binding seen in cells or lysates may run through a third protein. Some binding calls cover weakened binding; strength is not graded here. Where a sequence is shown, tags or fusion partners need not be part of it.

Assays:
[1] = target: T1, recombinant dimeric TCTP (translationally controlled tumor protein with the N-terminal 10 amino acids deleted) (Pan troglodytes (Chimpanzee)) (UniProt A5A6K2); test: pull-down on Protein A beads (Example 2), restated
T1 sequence: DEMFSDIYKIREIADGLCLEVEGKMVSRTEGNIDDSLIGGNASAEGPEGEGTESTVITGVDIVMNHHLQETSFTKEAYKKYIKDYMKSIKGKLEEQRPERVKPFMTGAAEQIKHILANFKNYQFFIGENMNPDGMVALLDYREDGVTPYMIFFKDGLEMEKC

[2] = target: T1, recombinant dimeric TCTP (translationally controlled tumor protein with the N-terminal 10 amino acids deleted) (Pan troglodytes (Chimpanzee)); test: pull-down on Protein A beads, Western blot (non-reducing) with anti-TCTP antibody
[3] = target: T2, recombinant monomeric TCTP (Pan troglodytes (Chimpanzee)) (UniProt A5A6K2); test: as above
T2 sequence: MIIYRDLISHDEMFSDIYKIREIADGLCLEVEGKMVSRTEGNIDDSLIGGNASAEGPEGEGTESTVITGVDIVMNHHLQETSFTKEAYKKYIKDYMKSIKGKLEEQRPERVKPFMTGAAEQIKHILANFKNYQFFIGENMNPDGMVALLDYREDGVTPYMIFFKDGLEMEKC

binding [1]: binds | binding [2]: binds | binding [3]: binds
B1: recombinant human CD300c-Fc chimeric protein (BioLegend) (Fc fusion, not shown: a dimerising Fc or GST; small tags and cut ends)
chain: MTVAGPVGGSLSVQCRYEKEHRTLNKFWCRPPQILRCDKIVETKGSAGKRNGRVSIRDSPANLSFTVTLENLTEEDAGTYWCGVDTPWLRDFHDPIVEVEVSVFPAGTTTASSPQSSMGTSGPPTKLPVHTWPSVTRKDSPEPSPHPGSLFSNVR
